We go through one substance from patent publication US20190048090A1.

Protein sequences, listed by entry. Tags and fused reporters are not part of them. Lines headed by an entry give the natural chain unless they say otherwise; changes in a name come on top.
UniProt P17301: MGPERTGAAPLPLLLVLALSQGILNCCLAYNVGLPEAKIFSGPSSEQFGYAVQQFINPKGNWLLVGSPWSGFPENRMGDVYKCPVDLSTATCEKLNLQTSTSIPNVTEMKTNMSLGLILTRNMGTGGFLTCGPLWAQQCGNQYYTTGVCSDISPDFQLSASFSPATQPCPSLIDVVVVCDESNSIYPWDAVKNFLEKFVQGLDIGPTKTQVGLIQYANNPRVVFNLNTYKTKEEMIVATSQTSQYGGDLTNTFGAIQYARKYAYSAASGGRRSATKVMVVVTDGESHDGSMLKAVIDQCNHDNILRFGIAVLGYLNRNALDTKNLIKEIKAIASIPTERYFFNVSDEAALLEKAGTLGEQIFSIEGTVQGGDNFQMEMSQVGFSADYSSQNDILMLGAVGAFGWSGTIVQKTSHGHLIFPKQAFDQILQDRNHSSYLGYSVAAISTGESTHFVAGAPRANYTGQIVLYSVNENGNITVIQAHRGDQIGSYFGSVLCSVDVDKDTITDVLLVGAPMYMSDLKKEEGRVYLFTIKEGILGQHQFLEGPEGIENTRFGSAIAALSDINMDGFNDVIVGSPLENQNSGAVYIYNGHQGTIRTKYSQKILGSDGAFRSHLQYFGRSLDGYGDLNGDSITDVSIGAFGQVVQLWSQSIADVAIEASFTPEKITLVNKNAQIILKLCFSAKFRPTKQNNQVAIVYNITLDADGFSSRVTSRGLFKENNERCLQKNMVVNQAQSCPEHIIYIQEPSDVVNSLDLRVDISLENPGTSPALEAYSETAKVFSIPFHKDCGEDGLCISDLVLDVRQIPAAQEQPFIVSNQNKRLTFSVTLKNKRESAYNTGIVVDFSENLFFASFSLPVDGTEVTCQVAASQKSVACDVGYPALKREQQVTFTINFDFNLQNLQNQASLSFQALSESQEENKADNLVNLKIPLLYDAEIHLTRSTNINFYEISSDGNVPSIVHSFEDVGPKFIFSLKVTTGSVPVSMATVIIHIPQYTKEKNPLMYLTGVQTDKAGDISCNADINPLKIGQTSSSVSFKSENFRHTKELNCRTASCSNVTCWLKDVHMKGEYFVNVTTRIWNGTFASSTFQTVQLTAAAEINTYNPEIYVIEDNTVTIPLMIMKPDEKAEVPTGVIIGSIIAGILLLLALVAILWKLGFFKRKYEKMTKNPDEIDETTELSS
UniProt Q12864: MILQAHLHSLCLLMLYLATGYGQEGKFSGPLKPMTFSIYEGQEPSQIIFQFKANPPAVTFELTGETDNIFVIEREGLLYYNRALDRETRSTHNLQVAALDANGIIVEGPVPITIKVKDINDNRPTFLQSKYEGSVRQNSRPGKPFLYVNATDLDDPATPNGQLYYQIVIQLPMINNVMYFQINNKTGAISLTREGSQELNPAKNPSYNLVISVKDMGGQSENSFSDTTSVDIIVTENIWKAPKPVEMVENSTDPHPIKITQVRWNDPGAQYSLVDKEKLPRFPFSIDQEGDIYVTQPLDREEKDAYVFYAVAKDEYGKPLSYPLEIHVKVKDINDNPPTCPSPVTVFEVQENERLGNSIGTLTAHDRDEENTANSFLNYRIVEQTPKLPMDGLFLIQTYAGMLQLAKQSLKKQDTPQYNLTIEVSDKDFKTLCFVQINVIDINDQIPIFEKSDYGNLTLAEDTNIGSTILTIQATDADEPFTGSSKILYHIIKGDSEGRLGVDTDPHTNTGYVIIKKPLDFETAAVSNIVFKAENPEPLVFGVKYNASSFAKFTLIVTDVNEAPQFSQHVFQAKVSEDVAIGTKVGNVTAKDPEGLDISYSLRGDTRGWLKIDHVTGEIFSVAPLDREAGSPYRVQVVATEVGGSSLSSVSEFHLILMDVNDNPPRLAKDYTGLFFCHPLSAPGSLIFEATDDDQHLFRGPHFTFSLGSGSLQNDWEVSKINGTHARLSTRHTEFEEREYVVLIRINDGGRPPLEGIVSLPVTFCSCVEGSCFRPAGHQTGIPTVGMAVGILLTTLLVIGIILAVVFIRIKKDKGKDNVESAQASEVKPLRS

The target in assay [1] is α2β1 integrin (human) (UniProt P17301). The assay is described as follows: affinity chromatography of KM12SM lysate on immobilized domain 6, elution with RGDS peptide, western blot. (In western blotting, separated proteins are transferred to a membrane and probed.)
Assay [2] shares this target. The assay is described as follows: affinity chromatography of KM12SM lysate, RGDS elution, western blot.

Results are given in words; binding and its absence hold for the method and conditions named. Binding calls can cover weak binding; strength is not graded here.

“recombinant CDH17 domain 6 wild type (571-665) (from UniProt Q12864)”: the binding result in assay [1] and in assay [2] was “binds” throughout.
